Experimental data as given in US10619182B2, “Method, device and system for testing drug sensitivity” (HITACHI, LTD., priority 2014, dated 2020).
At least one structure is not confirmed: it was looked up by name or label, or the drawing left a doubt.

How the values were obtained:
[1] = system: Escherichia coli (ATCC25922 strain); test: Antimicrobial susceptibility test using the ATP method (dead bacteria ATP / live bacteria ATP ratio); assay type: cell-based; conditions: E. coli, ABPC 4 μg/mL, LVFX 0.125 μg/mL, FIG. 11
Experimental: (§1) In this experiment, Escherichia coli (ATCC25922 strain; hereinafter, referred to as E. coli) and Staphylococcus aureus (ATCC25923; hereinafter, referred to as S. aureus) are used as the bacterial cell. An antimicrobial susceptibility test using the ATP method is carried out for both of these. As antibiotics, ampicillin and levofloxacin (hereinafter, referred to as LVFX) are used. First, the bacterial cells are cultured overnight on an LB agar medium, and the next day, a colony is suspended in a Mueller-Hinton (hereinafter, referred to as MH) medium, thereby preparing a bacterial suspension prepared in 0.5 McFarland. Next, the bacterial suspension diluted 500 times in the MH medium is distributed as much as each 50 μL to the plate to which the MH medium containing the antibiotic whose concentration is twice the final concentration is distributed in advance as much as each 50 μL. The static culture is carried out at 37° C. for a certain period of time, and the bacterial suspension is prepared. For the final concentration of the antibiotic, ABPC is set to 4 μg/mL and LVFX is set to 0.125 μg/mL in a case where E. coli is a measurement target. In a case where S. aureus is a measurement target, ABPC is set to 0.25 μg/mL and LVFX is set to 0.125 μg/mL. The bacterial cells are compared with the bacterial cells cultured in the MH medium having no antibiotic contained therein. The live bacteria ATP is prepared by mixing 2 μL of the ATP eliminating solution with 18 μL of the above-described bacteria culture liquid, and the mixture is left static at room temperature for 30 minutes. Thereafter, 20 μL of the ATP extracting reagent is mixed therewith, and the mixture is left static at room temperature for one minute so as to prepare the live bacteria ATP. The dead bacteria ATP is prepared by adding the bacteria culture liquid onto a filter (membrane pore size 0.22 μm). The filtrate obtained through filtering using centrifugation is used as the dead bacteria ATP. The luminescence reagent is added to the prepared live bacteria ATP or dead bacteria ATP, and is subjected to photon counting for one minute. The obtained luminescence amount (amount of luminescence (a.u.)) is used as an index of the ATP amount. According to the above-described experiment, a luminescence amount ratio between the dead ATP luminescence amount and the live ATP luminescence amount is obtained. FIGS. 11 and 12 illustrate a result obtained by calculating the luminescence amount ratio as an amount ratio between the live bacteria ATP and the dead bacteria ATP.

[2] = system: Staphylococcus aureus (ATCC25923); test: as above; assay type: cell-based; conditions: S. aureus, ABPC 0.25 μg/mL, LVFX 0.125 μg/mL, FIG. 12
Experimental: as §1

**Q.** `C[C@H]1COc2c(N3CCN(C)CC3)c(F)cc3c(=O)c(C(=O)O)cn1c23` [LVFX, levofloxacin] was tested. Which “time after start of antimicrobial susceptibility culture at which the effect can be determined (ratio dead bacteria ATP/live bacteria ATP = 1)” value [1] did it give?
**A.** approximately three

**Q.** What about the “ratio of the dead bacteria ATP amount/the live bacteria ATP amount as the culture time elapses” value ([1]; MH medium, 37° C.) of the same compound?
**A.** increases

**Q.** What about the “time after start of antimicrobial susceptibility culture at which the effect can be determined (ratio dead bacteria ATP/live bacteria ATP = 1)” value [2] of the same compound?
**A.** approximately four

**Q.** And the “ratio of the dead bacteria ATP amount/the live bacteria ATP amount as the culture time elapses” value ([2]; MH medium, 37° C.)?
**A.** increases
